Source: PMC3898904
These are yes or no findings as the source states them, for the method shown. Binding seen in cells or lysates may run through a third protein. These calls come from enrichment with a bait or labelling near it, and not all partners need be listed. For some of these results: A no says only that the protein was not detected with the bait. Where a sequence is shown, tags or fusion partners need not be part of it. Values belong to the molecule of their own block, whether it stands above or below them.

What was measured:
[1] = molecular target: T1, MORC6-3xFlag (Arabidopsis thaliana) (UniProt Q56Y74); test: affinity purification with mass spectrometry; 3 g flower tissue of transgenic plants; Lysis buffer (50 mM Tris pH 7.6, 150 mM NaCl, 5 mM MgCl2, 10% glycerol, 0.1% NP-40, 0.5 mM DTT); antibody agarose, 4°C, 2.5 h, four washes, elution with 3xFlag peptide; total eluted proteins or silver-stained bands cut from the SDS-PAGE gel; LTQ mass spectrometer, Mascot
T1 sequence: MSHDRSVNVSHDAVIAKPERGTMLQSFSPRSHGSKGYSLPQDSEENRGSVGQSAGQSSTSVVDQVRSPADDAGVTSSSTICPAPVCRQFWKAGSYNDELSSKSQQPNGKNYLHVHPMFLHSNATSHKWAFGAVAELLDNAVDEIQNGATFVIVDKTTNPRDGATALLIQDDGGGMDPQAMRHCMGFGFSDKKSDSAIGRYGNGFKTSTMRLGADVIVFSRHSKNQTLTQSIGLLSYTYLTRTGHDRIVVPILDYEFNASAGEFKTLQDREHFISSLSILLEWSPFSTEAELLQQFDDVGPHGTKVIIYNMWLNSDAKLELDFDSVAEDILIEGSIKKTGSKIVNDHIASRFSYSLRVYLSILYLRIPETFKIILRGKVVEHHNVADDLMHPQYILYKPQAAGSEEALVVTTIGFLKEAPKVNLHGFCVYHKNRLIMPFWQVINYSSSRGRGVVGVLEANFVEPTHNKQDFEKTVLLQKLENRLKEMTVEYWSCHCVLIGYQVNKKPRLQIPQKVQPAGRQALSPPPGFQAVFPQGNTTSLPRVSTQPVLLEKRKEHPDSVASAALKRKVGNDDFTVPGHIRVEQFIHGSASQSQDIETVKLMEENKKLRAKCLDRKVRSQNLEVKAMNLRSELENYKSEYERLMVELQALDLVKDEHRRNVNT

[2] = molecular target: T2, SUVH2-3xMyc (Arabidopsis thaliana) (UniProt O22781); test: as above
T2 sequence: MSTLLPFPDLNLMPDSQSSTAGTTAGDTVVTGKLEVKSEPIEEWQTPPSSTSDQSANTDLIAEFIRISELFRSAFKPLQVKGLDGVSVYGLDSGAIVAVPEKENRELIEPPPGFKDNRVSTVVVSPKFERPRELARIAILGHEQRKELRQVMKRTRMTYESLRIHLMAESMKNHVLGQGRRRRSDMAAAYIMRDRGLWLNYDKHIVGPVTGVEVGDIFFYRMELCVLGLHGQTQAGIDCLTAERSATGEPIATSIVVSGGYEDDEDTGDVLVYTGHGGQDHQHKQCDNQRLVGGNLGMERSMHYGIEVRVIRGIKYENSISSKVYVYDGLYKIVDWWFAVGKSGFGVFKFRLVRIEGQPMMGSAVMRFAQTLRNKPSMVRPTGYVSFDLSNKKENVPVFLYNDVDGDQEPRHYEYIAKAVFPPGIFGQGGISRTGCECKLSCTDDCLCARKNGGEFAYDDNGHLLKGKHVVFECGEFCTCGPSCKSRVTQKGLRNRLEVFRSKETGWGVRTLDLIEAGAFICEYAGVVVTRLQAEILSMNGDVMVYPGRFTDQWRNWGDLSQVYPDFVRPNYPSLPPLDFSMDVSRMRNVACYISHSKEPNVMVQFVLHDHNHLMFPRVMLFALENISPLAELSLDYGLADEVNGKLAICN

binding [1]: binds
B2: MORC1/CRT1, endogenous (protein, UniProt Q84WV6 1-635)
chain: MAKNYTVADVVNIDSDSDSDDDNGGVIGMVPSLASLIENQKVSIADAATVAPRETLECRSFWKAGENFVIPSSVTLTAIGMVEHARVHPKFLHSNATSHKWAFGAIAELLDNAVDEIQNGATVVKIDKINIVKDNTPALVFQDNGGGMDPNGIRKCMSLGYSSKKSNTTIGQYGNGFKTSTMRLGADAMVFSRSTRGGKSTQSIGLLSYTFLRKTGQDDVIVPMIDFDISSDSPQPIIYGSPGDWSTNLNILLKWSPFSTMVELLQQFEDIGTHGTKVIIYNLWLNDEGIYELSFDDDDVDIRLRDENAQDGKRLHAKTLEVRSHISYRYRHSLRAYISMLYLKKFKNFKIILRGVSVAQFNIADEFRHPETIMYKPQAAAVDYAATGIKVGFIKEAPKLPICGFNVYHKNRLIRPFWKVVLEGSTRGNGVMGVLEANFIEPAHDKQDFERSSLFLRLEARLKRITSDYWQNHCHIFGYQTAQIPADKSKRTVIPDQPPTVNTYNPSPLPSDRISHGGPIIREINLSNATSSRTAAVAAPHLRNYTGLRNNFQPVQLNPQPPAAGDTGNNLVGKLAAEIREENLQLFMRCEEYVKKENEVEQTVKSLEKELEEIKSKCAQLALLVDAKKKEMQQV

binding [1]: binds
B3: MORC2, endogenous (protein, UniProt Q5FV35 1-626)
chain: MPPMAKNAAVTDVVHLDSDSDSDNGVVGGRESASTIAGAATMAPRETLECRSFWKAGDYFVIPNVVTPTAPGMLEHARVHPRFLHSNATSHKWAFGAIAELLDNAVDEIQNGATFVKIDKINIVKDNSPALVFQDDGGGMDPAGLRKCMSLGYSSKKSNTTIGQYGNGFKTSTMRLGADAIVFSRSTRGGTSTQSVGILSYTFLRKTGQDDVTVPMIDIDISKERPQPIIYGSPEDWAANLEILLKWSPFSTEDELLQQFEDVGTHGTKVIIYNLWLNDEGIYELSFDDDEEDIRLRDESVNDGKRLHHKILELRSHISYHLRYSLRAYASMLYLKKFKNFKIIIRGIPVEQFNIADGFRFPEIIKYKPHTATTEQASTEIKIGFVKEAPKLAICGFNVYHKNRLIRPFWKVTMGGDSTGHGVVGVLEANFIEPAHDKQDFERSSLFQRLEARLKKIVYSYWYSHCHLLGYHKYQMPADKSKKIAIPDQPPTISTVNPSPLPSDKISQGGPIIREINLSNATSSRTVAFASPHLRNSTGLRSNFQPVQLNPQPTAADTGNNLDGKSAGEIRQENLQLFMRCEEYIKKENETEQTVKSLEKELEEFKSKCAHLALLVDAKKKEMQQA

binding [1]: binds
B5: CHB3/SWI3D, endogenous (protein, UniProt Q8VY05 1-985)
chain: MEEKRRDSAGTLAFAGSSGDSPASEPMPAPRRRGGGLKRKANALGGSNFFSSAPSKRMLTREKAMLASFSPVHNGPLTRARQAPSIMPSAADGVKSEVLNVAVGADGEKPKEEEERNKAIREWEALEAKIEADFEAIRSRDSNVHVVPNHCGWFSWEKIHPLEERSLPSFFNGKLEGRTSEVYREIRNWIMGKFHSNPNIQIELKDLTELEVGDSEAKQEVMEFLDYWGLINFHPFPPTDTGSTASDHDDLGDKESLLNSLYRFQVDEACPPLVHKPRFTAQATPSGLFPDPMAADELLKQEGPAVEYHCNSCSADCSRKRYHCPKQADFDLCTECFNSGKFSSDMSSSDFILMEPAEAPGVGSGKWTDQETLLLLEALEIFKENWNEIAEHVATKTKAQCMLHFLQMPIEDAFLDQIDYKDPISKDTTDLAVSKDDNSVLKDAPEEAENKKRVDEDETMKEVPEPEDGNEEKVSQESSKPGDASEETNEMEAEQKTPKLETAIEERCKDEADENIALKALTEAFEDVGHSSTPEASFSFADLGNPVMGLAAFLVRLAGSDVATASARASIKSLHSNSGMLLATRHCYILEDPPDNKKDPTKSKSCSADAEGNDDNSHKDDQPEEKSKKAEEVSLNSDDREMPDTDTGKETQDSVSEEKQPGSRTENSTTKLDAVQEKRSSKPVTTDNSEKPVDIICPSQDKCSGKELQEPLKDGNKLSSENKDASQSTVSQSAADASQPEASRDVEMKDTLQSEKDPEDVVKTVGEKVQLAKEEGANDVLSTPDKSVSQQPIGSASAPENGTAGGNPNIEGKKEKDICEGTKDKYNIEKLKRAAISAISAAAVKAKNLAKQEEDQIRQLSGSLIEKQLHKLEAKLSIFNEAESLTMRVREQLERSRQRLYHERAQIIAARLGVPPSMSSKASLPTNRIAANFANVAQRPPMGMAFPRPPMPRPPGFPVPGSFVAATTMTGSSDPSPGSDNVSSV

Further lines, the molecule ahead of its results:

Molecule: … IN MERISTEM … 3 (DMS3), endogenous (from UniProt Q94A79 1-420)
binding [1]: no binding | binding [2]: binds

B1: … IN RNA-DIRECTED DNA …ON 1 (DRD1), endogenous (protein, UniProt Q9SIW2 1-888)
chain: MGFVYIVMTGYYKNVHKRKQNQVDDGPEAKRVKSSAKVIDYSNPFAVSNMLEALDSGKFGSVSKELEEIADMRMDLVKRSIWLYPSLAYTVFEAEKTMDNQQVVEGVINLDDDDDDDTDVEKKALCVVPSSSEIVLLDSDDEDNERQRPMYQFQSTLVQHQKNQGDVTPLIPQCSFEEVDLGRGKEMPSAIKAIVEGQTSRGKVLPIENGVVNEKGVYVGVEEDDSDNESEAADEDLGNIWNEMALSIECSKDVARETSHKEKADVVEDCEHSFILKDDMGYVCRVCGVIEKSILEIIDVQFTKAKRNTRTYASETRTKRFGESDNELKFSEEGLMIGGLAAHPTHAAEMKPHQIEGFQFLCSNLVADDPGGCIMAHAPGSGKTFMIISFMQSFLAKYPQAKPLVVLPKGILPTWKKEFVRWQVEDIPLLDFYSAKAENRAQQLSILKQWMEKKSILFLGYQQFSTIVCDDTTDSLSCQEILLKVPSILILDEGHTPRNEDTNLLQSLAQVQTPRKVVLSGTLYQNHVKEVFNILNLVRPKFLKLDTSKSAVKRILAYTPCDVRGRLTGSNSDMASMFNETVEHTLQKSEDFTVKIKVIQDLREMTKKVLHYYKGDFLDELPGLADFTVVLNLSPKQLNEVKKLRREKRKFKVSAVGSAIYLHPKLKVFSDKSDDVSDTTMDEMVEKLDLNEGVKAKFFLNLINLCDSAGEKLLVFSQYLIPLKFLERLAALAKGWKLGKEVFVLTGNTSSEQREWSMETFNSSPDAKIFFGSIKACGEGISLVGASRILILDVPLNPSVTRQAIGRAFRPGQKKMVHAYRLIAGSSPEEEDHNTCFKKEVISKMWFEWNEYCGYQNFEVETIDVDEAGDTFLESPALREDIRVLYKR
binding [2]: binds

B4: SUVH9, endogenous (protein, UniProt Q9T0G7 1-650)
chain: MGSSHIPLDPSLNPSPSLIPKLEPVTESTQNLAFQLPNTNPQALISSAVSDFNEATDFSSDYNTVAESARSAFAQRLQRHDDVAVLDSLTGAIVPVEENPEPEPNPYSTSDSSPSVATQRPRPQPRSSELVRITDVGPESERQFREHVRKTRMIYDSLRMFLMMEEAKRNGVGGRRARADGKAGKAGSMMRDCMLWMNRDKRIVGSIPGVQVGDIFFFRFELCVMGLHGHPQSGIDFLTGSLSSNGEPIATSVIVSGGYEDDDDQGDVIMYTGQGGQDRLGRQAEHQRLEGGNLAMERSMYYGIEVRVIRGLKYENEVSSRVYVYDGLFRIVDSWFDVGKSGFGVFKYRLERIEGQAEMGSSVLKFARTLKTNPLSVRPRGYINFDISNGKENVPVYLFNDIDSDQEPLYYEYLAQTSFPPGLFVQQSGNASGCDCVNGCGSGCLCEAKNSGEIAYDYNGTLIRQKPLIHECGSACQCPPSCRNRVTQKGLRNRLEVFRSLETGWGVRSLDVLHAGAFICEYAGVALTREQANILTMNGDTLVYPARFSSARWEDWGDLSQVLADFERPSYPDIPPVDFAMDVSKMRNVACYISHSTDPNVIVQFVLHDHNSLMFPRVMLFAAENIPPMTELSLDYGVVDDWNAKLAICN
binding [1]: binds
